Reference: article PMC4519322 (PLoS Pathogens, 2015)
These are yes or no findings as the source states them, for the method shown. Binding seen in cells or lysates may run through a third protein. Some results given as binding are weak or reduced against the parent protein; the word gives no strength.

Amino acid sequences for entries named in this document (tags omitted). Residues count along the entry.
UniProt P15682, residues 8-498: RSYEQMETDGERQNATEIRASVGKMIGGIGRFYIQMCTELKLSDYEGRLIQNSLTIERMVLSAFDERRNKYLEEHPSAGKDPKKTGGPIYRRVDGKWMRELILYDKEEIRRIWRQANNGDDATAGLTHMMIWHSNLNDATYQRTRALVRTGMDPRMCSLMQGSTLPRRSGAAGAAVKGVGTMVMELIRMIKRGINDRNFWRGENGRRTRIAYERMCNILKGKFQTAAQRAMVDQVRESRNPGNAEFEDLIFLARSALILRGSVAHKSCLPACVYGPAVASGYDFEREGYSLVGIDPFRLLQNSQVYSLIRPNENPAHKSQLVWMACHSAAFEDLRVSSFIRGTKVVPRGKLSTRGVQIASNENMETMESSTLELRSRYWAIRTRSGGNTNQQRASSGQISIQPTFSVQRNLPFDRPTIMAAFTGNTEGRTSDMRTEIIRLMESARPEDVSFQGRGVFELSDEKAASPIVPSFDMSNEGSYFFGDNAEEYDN
UniProt O14980: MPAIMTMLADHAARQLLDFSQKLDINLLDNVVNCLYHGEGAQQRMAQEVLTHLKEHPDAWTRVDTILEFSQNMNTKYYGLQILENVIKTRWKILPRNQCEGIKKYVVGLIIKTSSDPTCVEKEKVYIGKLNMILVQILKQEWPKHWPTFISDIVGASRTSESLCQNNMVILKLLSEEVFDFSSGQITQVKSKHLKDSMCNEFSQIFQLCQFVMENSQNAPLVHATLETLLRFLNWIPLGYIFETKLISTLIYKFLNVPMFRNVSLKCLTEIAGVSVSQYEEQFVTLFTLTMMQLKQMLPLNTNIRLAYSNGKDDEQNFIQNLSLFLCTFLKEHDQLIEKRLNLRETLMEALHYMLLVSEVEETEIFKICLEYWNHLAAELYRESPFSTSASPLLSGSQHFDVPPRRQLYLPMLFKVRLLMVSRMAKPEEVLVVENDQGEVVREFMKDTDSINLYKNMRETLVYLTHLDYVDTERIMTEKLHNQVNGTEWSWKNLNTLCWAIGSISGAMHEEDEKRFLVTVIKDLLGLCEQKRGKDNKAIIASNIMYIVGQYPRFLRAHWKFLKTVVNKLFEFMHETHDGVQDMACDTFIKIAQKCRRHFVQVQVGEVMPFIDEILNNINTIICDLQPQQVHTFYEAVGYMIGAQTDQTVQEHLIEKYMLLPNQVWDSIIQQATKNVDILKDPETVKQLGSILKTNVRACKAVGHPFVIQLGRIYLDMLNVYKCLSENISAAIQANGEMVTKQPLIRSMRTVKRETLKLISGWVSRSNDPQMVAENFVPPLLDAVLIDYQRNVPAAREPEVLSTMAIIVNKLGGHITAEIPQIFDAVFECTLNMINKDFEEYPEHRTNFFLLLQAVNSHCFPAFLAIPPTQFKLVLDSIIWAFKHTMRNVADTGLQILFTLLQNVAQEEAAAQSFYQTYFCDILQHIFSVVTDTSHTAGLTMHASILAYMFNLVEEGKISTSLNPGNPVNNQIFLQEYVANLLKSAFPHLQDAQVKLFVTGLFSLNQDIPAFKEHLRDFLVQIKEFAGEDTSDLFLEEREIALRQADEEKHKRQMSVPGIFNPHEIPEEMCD

Molecular target: wild-type NP fused to a Flag tag (NP-Flag), influenza A/WSN/1933 (H1N1) nucleoprotein (influenza A/WSN/1933 (H1N1) virus) (UniProt P15682)
Test: pull-down; only the target purified

chromosome region maintenance 1 (CRM1) (from UniProt O14980 1-1071)
binding: binds
